Measurements: patent US20230365626A1, “Alloferon Peptide and Method Using the Same” (Industry Academy Cooperation Foundation of Sejong University, priority 2020, published 2023)
Not every detail of the peptide structures is certain; ends, links or a residue may be inferred. Square brackets hold non-standard residues; d marks the D form. Peptide text beside a SMILES is read from it.

Experiments:
dementia model mice [1] = assay: β-amyloid accumulation and autophagy in mouse cerebrum (western blot, Thioflavin S staining); assay type: in vivo
dementia model mice [2] = assay: Water maze test; assay type: in vivo
TFEB = assay: Immunocytochemical analysis of TFEB position; assay type: cell-based, ICR mouse; settings: 20 μM for 1, 2, and 4 hours (FIG. 5C)
[3] = tested on: cerebral cortical nerve cells; assay: Zinpyr-1 staining (zinc in the lysosome); assay type: cell-based, ICR mouse; settings: 2 μM or 20 μM, 1 hour and 4 hours (FIG. 6)
Experimental: Subsequently, the present inventors measured the zinc concentration in the cells to determine what effect the treatment with the alloferon D-form peptides has on the zinc concentration in the lysosome. To this end, specifically, the cerebral cortical nerve cells were washed once with MEM, and then the MEM was replaced with MEM containing 5 μM zinpyr-1, an intracellular zinc marker (Cayman Chemical, USA, Ex=492 nm, Em=527 nm) and 75 nM lysotracker, and left at 37° C. for 30 minutes. Thereafter, it was washed with fresh MEM and treated with individual reagents (alloferon D-form peptides) according to the experimental conditions. Then, the cells were fixed with 4% PFA (pH 7.4) for 15 minutes, washed twice with PBS (Biowest, France), and photographed with a fluorescent microscope.

H4 cell line (GL-H4) = assay: LC3-GFP puncta, autophagic flux blocked by chloroquine (fluorescence microscopy); assay type: cell-based
Experimental: In addition, in this study, H4 cell line (GL-H4) and 293T cell line in which the GFP-LC3 plasmid was permanently infected were used. As a cell culture medium, 10% fetal bovine serum (Hyclone, USA) and a mixture solution of antibiotics and antifungal agents ([…], South Korea) were added to Minimum Essential Medium ([…]) and incubated in a cell incubator in which the conditions of 37° C. and 5% CO2 were maintained. […] Here, the MβCD is a caveolin-mediated endocytosis inhibitor, and CP is a clathrin-mediated endocytosis inhibitor. In addition, in the cell line experiments, the medium was changed to MEM according to the purpose of the experiments and was then treated with 40 μM chloroquine (CQ) and 100 nM bafilomycin A-1 (Baf-A1). During the pre-preparation process, the medium was treated with alloferon D-form peptides (0.2, 2, or 20 μM), free zinc (25 μM), TPEN (1 μM), and the like separately or together according to the purpose of each experiment. […] Specifically, RIPA lysis buffer (50 mM Tris, pH 7.5, 150 mM NaCl, 1% NP-40, 0.5% deoxycholic acid, 0.1% SDS, and 5 mM EDTA) to which a protease inhibitor and a phosphatase inhibitor (2 μg/mL aprotinin, 2 μg/mL leupeptin, 1 μg/mL pepstatin A, 1 mM phenyl-methylsulfonyl fluoride (PMSF), 1 mM Na3VO4, 5 mM NaF, and 10 mM Na4P2O7) was added into a 6-well culture dish at 150 μL per well to lyse the cells, and the obtained cell lysate was left at 4° C. for 25 minutes. Thereafter, the lysate was centrifuged at 10,000 rpm for 5 minutes, and then only the supernatant was taken to remove cell debris and obtain a protein extract. Protein quantification was performed using BCA protein assay kit (Pierce Biotechnology, USA). Then, 5× sample buffer (300 mM Tris, pH 6.8, 10% SDS, 50% glycerol, 0.1% BPB, 2.5% mercaptoethanol, and 100 mM DTT) was mixed with a quantified sample and denatured at 95° C. for 5 minutes to prepare the sample. Thereafter, the proteins separated according to sizes by electrophoresis using an 8% to 15% SDS-polyacrylamide gel were transferred to a polyvinylidene difluoride (PVDF) membrane (Millipore, USA). Then, the protein-transferred membrane was blocked for 1 hour by adding 3% skimmed milk or 3% BSA to TBST. The blocked membrane was reacted using anti-LC3-I antibodies (Novus Biologicals, LLC., USA), anti-LC3-II antibodies (Novus Biologicals, LLC., USA), and anti-p62 antibodies (MBL international corporation, USA), and the anti-Actin antibodies (Sigma, USA) were used as a loading control. Antibodies that respectively recognize specific proteins were added to a solution in which 1% BSA was dissolved in TBST. For all blots, secondary antibodies were diluted in 2% skimmed milk or 2% BSA at a ratio of 1:10,000, and reacted, and enhanced chemiluminescence (iNTRoN Biotechnology, South Korea) and bioimaging system (MF-Chemibis, Shimadzu Scientific Korea Corporation, South Korea) were used to identify protein signals.

cortical nerve cells = assay: Western blot of p62 and LC3 after chloroquine; assay type: cell-based, ICR mouse; settings: 6 hours (FIG. 2C)
cathepsin B = assay: In situ cathepsin B enzymatic activity (Magic Red); assay type: cell-based, ICR mouse
[4] = in combination with CQ, 6 hours (FIG. 2B)

Question: CC(C)[C@@H](NC(=O)CNC(=O)[C@H](N)Cc1c[nH]cn1)C(=O)N[C@H](CO)C(=O)NCC(=O)N[C@H](Cc1c[nH]cn1)C(=O)NCC(=O)N[C@H](CCC(N)=O)C(=O)N[C@H](Cc1c[nH]cn1)C(=O)NCC(=O)N[C@@H](C(=O)N[C@H](Cc1c[nH]cn1)C(=O)NCC(=O)O)C(C)C [alloferon D-form peptides] (H-[dH]G[dV][dS]G[dH]G[dQ][dH]G[dV][dH]G-OH; N-terminus and C-terminus assumed) was tested. Which “number of plaque (Thioflavin S staining)” value (dementia model mice [1]; brain slices of dementia model mice (FIG. 12B)) did it give?
Answer: The value was “decreased”.

Question: And the “accumulation of p62 protein” value (dementia model mice [1]; brains of dementia model mice (FIG. 12C))?
Answer: The value was “decreased”.

Question: What about the “accumulation of β-amyloid (western blot, 6E10)” value (dementia model mice [1]; cerebral cortex and hippocampus of dementia model mice, intraperitoneal injection (FIG. 12A)) of the same compound?
Answer: The value was “decreased”.

Question: What about the “time to find the escape platform” value (dementia model mice [2]; control mice, vs control injected with saline, 5 days) of the same compound?
Answer: The value was “gradually and efficiently found the escape platform at a similar time”.

Question: And the “time to find the escape platform” value (dementia model mice [2]; dementia model mice, 4 times a day for 5 days (FIG. 11))?
Answer: Its value is “efficiently found the escape platform in the tank at a level similar to that of the control”.

Question: What about the “position of the TFEB” value (TFEB) of the same compound?
Answer: The value was “moved from the neurites side to the cell body side having the nucleus in a time-dependent manner”.

Question: And the “zinc ions in the lysosome (Zinpyr-1 fluorescence) compared to the control” value [3]?
Answer: The value was “increased”.

Question: And the “number and size of LC3 puncta increased by CQ” value (H4 cell line (GL-H4); 0.2 μM, 2 μM, or 20 μM in combination with CQ, 6 hours)?
Answer: The value was “decreased in a concentration-dependent manner”.

Question: And the “autophagic flux blocked by chloroquine” value (H4 cell line (GL-H4); FIG. 2A legend)?
Answer: Its value is “recovered”.

Question: And the “concentration from which a significant decrease of puncta size was shown” value (H4 cell line (GL-H4); [4])?
Answer: The value was at least 0.2 µM.

Question: And the “size of the entire puncta, quantified” value (H4 cell line (GL-H4); [4])?
Answer: Its value is “decreased in a concentration-dependent manner”.

Question: And the “LC3 puncta compared to the control” value (H4 cell line (GL-H4); peptide alone, 0.2, 2 or 20 μM, 6 hours)?
Answer: Its value is “no significant difference”.

Question: What about the “p62 accumulated by CQ” value (cortical nerve cells; 0.02 μM peptide with CQ) of the same compound?
Answer: Its value is “reduced”.

Question: What about the LC3 conversion (cortical nerve cells; with CQ) of the same compound?
Answer: The LC3 conversion was “did not show any significant difference”.

Question: And the “increase of the activity of cathepsin B” value (cathepsin B; treatment for 1 hour, 2 μM and 20 μM (FIG. 4A))?
Answer: The value was “about 2 times”.

Question: What about the “increase of the activity of cathepsin B” value (cathepsin B; treatment for 4 hours, 2 μM and 20 μM (FIG. 4B)) of the same compound?
Answer: The value was “about 3 times”.
